The exact form of at least one protein or probe is not confirmed.

Experiment in all cases: EMSA
Common to all, as to conditions: LightShift Chemiluminescent EMSA Kit (Thermo) per manufacturer; pH and temperature not stated; recombinant protein; protein details: His (pET-28a); probe letters rebuilt from the primers and the genome
On the technique in general: A gel shift assay detects complexes by their altered migration in electrophoresis.

The target of series [1] is BbOsrR3 DNA-binding domain (Beauveria bassiana) (UniProt J5K4G2).
The target of series [2] is BbOsrR1 DNA-binding domain (Beauveria bassiana) (UniProt J4KQN9).
Series [3] has as its target BbOsrR2 DNA-binding domain (Beauveria bassiana) (UniProt J5JXE0).

Consider “ATCGCCAAATACGGTTTTGCGAGAGTCAACTTTGCCAGAGCTTCCTACAGCTGCGAGACGAATATCCAACAGCGGCTCCAAGAAAATTTACCCCGTAGGTCCACTTGTTGGTCCAGTGCCTGCTTGCGCCGGCGGTTACCTCCTGCATCCAGCATTGGCCCTTTTAAGTTTGTGCCTCAACTGCGACACGCGCCAGGAGCAGTCAGCTTCGCCCCTCGCGAAGCGTTGTACCAAAAGTCTCCCAAAGCTAGCGGCATTGACAGATCGGCGAGGACCAGGCCCG (double strand) [Fus3 promoter WT]”, for which the binding result in series [1] is recorded as “binds”.
On to “TGCTGGCTAGGGTCCGGGGTGTGTGTTTTTTTTGGCCGGATTAAAATGAGGAAGAAGCCTTGCTATGGAGCCAAGTGTCGACATGGGCGAAGAAGCAAAAAAAAAAGGGCCGTTGTCTAGAAAACACTAGAGCAACACCACCACGAGCAGAATATGGTTATTAGAAAAAAATTAAAGTGGACGCCGGCGAAGAATTTAAAGAATTAGAAAAAAAAAGCAGTGATTACAACGGCAAGAATGAAAAAAAAAAACGATTGGAGGACCCTTTGACCTACGGGCCAGTGCAAAGGGGATTGCCGGTGAGATGGCTGGCGCCCGAGTTTCGTGGTGGTAATGAATTGTCGAGATGACGATGTAGCAAAGAAGAGGAAGAGAGAAAAAAAGGCCCAGCGACCTTGACTTGGTTTGAGGCCTGCATATTCTTTTTTTTTTTGGGCTGCTAGCCCGGCTAGGCTATTTAGGTAGGTAGGTAGAGACCTTAACTACCTAGCGCCGAGTCT (double strand) [BbOsrR2 promoter WT]”, for which, in series [2], the binding result was “binds”.
Same read-out and setting: as for “AAGATCATCCGCTAATCTCGCATCTTTCTTTTCTTCTGCGTCTTTTTCTTCAGACGCAATCAGCTTGTCCCGCTTCCTCCGCCCTGGTTCGTCGCCCCCCGCCTCGCACCAGAGACTCGCAGGGCAACCACGCACGTTGGGCCCCTCTCCCCTCTCTCGTTCACCGAGAAGGAAAAAAAAAAAAAATCACACACCCTCCCAGCGCTCGCATGACGATGAAATGGCAGCAGTAATTGGCGACTTCGTAACCGATCTCTCACGATTCCATAATATGATTACAAGCTCGTCGTC (double strand) [BbClp1 promoter WT]”, the entry is “binds”.
Consider “GGAGCGTGGGAGCGTGGGAGGGAGGGAGCAAGGCCGTGTGTCGCAGAGAAACAAACCAGGTTTGGATTGGGAAAAAGGTTGGGGGTTAATTTTGATGCGGATGGGCAGGAGCAGGTGGGCGGGCAGGTCTTTCTGTATTCAGTCTGGTGTGGTCAGTCGTCAGTGGGCAATGGGCATTGGCATCAAGCATGTAGGCAGGCAGGCAGGCAGGCAGACAGGCAGGCAAGCAAGTAACGAGTCGTTTGGTGAGGGGGG (double strand) [Mcm1 promoter WT]”, for which, in series [3], the binding result is recorded as “binds”.
Still for that read-out and setting: as for “CCCCCCTTCCACATCCACTCATCATCCACTCCTCCTCATCCACTCCTCCTCCCACTCCCACTCTCACTCCCACTCCATCTTTCCGCCTCTTCCCTTCCTCTCCTCCCATTATTTTGTCCATCTAGCAAAGGCGTCCAACACTGTCTGTCGACACCCGGATCGGACATTTCCTCCTCTCTTCCTCAATCATCCCTCTCCGGAATATGCGTTGGCAGTAGCGGCCCTTTTTTTCACTTCGTCTTTTCTTCTTCTTCTTCCTCCTCCTCTTCTTCTACT (double strand) [Msg5 promoter WT]”, the entry is “binds”.

Source of the values: paper PMC11015564.
